In patent US20170029530A1:
No constants are given. Whether binding was seen depends on the method and setting. Some entries that bind do so weakly or less than the wild type.

The chains behind the UniProt entries cited, without tags or fusion partners. Where a name states a change or a piece, a line headed by the entry shows the natural chain unless it says otherwise. Residues count along the entry.
UniProt Q4R7M2, residues 36-463: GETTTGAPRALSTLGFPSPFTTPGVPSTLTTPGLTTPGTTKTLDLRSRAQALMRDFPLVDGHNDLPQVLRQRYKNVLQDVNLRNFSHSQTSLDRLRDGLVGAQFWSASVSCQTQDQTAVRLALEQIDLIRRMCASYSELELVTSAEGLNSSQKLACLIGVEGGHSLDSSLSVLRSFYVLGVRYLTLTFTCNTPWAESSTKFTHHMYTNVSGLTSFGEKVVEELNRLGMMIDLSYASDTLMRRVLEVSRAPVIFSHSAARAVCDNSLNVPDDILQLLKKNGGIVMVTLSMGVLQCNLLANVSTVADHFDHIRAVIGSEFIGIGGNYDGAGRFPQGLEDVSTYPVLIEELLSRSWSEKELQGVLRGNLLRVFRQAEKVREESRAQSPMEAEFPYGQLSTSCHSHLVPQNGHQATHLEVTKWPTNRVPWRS
UniProt Q5U2X4: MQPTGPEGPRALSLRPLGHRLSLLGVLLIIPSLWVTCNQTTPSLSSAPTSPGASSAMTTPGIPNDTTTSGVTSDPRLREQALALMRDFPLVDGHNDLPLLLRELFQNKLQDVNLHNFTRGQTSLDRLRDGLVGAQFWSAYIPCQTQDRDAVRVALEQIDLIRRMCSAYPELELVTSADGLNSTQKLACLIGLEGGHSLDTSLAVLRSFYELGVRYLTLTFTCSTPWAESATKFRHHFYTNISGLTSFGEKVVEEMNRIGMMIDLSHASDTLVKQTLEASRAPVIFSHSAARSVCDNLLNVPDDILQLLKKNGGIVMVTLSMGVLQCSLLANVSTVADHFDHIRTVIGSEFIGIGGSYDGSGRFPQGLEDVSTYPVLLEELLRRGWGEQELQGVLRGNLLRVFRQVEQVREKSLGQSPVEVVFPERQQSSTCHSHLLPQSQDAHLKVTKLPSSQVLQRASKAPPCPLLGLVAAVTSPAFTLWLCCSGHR

T1: human DPEP3 (hDPEP3) protein on the cell surface (human) (UniProt Q9H4B8)
T1 sequence (chain, GPI anchor at the C-terminus after removal of the final 25 amino acids): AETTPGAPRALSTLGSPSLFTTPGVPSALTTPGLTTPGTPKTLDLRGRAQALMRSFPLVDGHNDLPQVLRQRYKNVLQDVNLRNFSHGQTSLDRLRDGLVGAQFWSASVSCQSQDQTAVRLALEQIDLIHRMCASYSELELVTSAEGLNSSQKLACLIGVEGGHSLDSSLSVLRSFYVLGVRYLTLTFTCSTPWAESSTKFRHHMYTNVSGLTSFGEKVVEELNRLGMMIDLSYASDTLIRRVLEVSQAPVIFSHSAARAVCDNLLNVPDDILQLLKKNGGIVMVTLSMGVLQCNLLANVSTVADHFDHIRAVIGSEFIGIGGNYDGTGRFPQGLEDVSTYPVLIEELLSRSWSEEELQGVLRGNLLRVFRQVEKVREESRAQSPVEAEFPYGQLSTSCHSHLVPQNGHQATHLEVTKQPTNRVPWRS

B1: SC34.63 (antibody, mouse IgG1)
light chain: DIVMSQSPSSLAVSVGEKVTMSCKSSQSLLYSKYQKNYLAWYQQKPGQSPKLLIYWASTRESGVPDRFTGSESGTDFTLTISSVKAEDLAVYYCQQYYRYPLTVGAGTKLELK
heavy chain: QVQLQQSGVELARPGASVKLSCKASGYTFTSYGIDWVKQRTGQGLEWIGETYPGRGDTYYNENFKGKATLTTDKSSSTAFLQLSSLTSEDSAVYFCARVHDYGSWFPYWGQGTLVTVSA
B2: SC34.67 (antibody, mouse IgG2a, V domains shown)
VH: QVQLQQSGAELARPGASVRLSCKASGYTFTSYGINWVKQRTGQGLEWIGEIYPGSGDSYYNKTFKGKAILTTDKSSSTAYMQLSSLTPEDSAVYFCARVHDYGSWFPYWGPGALVTVSA
VL: DMVMSQSPSSLAVSVGEKVALSCKSSQSLLHSRDQKNYLAWYQQKPGQSPKLLIHWASTRESGVPARFTGSGSGTDFTLTISSVKAEDLAVYYCQQSYRYPLTFGAGTKLELK
B3: SC34.76 (antibody, mouse IgG1, V domains shown)
VH: QVQLQQSGAELARPGASVKLSCKTSEYTFTSYAINWVKQRTGQGLEWIGEVYPGSGNTYYNEKFKGKAILTTDKSSSTGYMQLSNLTSEDSAVYFCARVHDYGSWFPYWGQGTLVTVSA
VL: DIVMSQSPSSLAVSVGERVTMNCKSSQSLFYSRYQKNYLAWYQQKPGQSPKLLIYWASTRESGVPDRFTGSGSGTDFTLTISSVKAEDLAVYYCQQYYRYPLTFGAGTKLELK
B4: SC34.86 (antibody, mouse IgG1, V domains shown)
VH: QVQLQQSGAELARPGASVKLSCKASGYTFTSYTITWVKQRTGQGLEWIGEIYPGSGNTYYNEKFKGKATLTTDKSSSTAYMQLSSLTSEDSAVYFCARVHDYGSWFPYWGQGTLVTVSA
VL: DTVMSQSPSSLAVSVGEKVTLSCKSSQSLLYSRYQKNYLAWYQQKPGQSPKLLLYWASTRESGVPDRFTGSGSGTDFTLTISSVKAEDLAVYYCQQHYRYPLTFGAGTKLELK
B5: SC34.7 (antibody, mouse IgG1, V domains shown)
VH: QVQVQQSGAELARPGASVKLSCKASGYTFTSYGINWVKQRTGQGLEWIGEIYPGSGNAYYNEKFKVKAKLTTDNSSRTAYMQLINLTSEDSAVYFCARVHDYGSWFPYWGQGTLVTVSA
VL: DIVMSQSPSSLAVSVGEKVTMSCKSSQSLLYSRYQKNYLAWYQQKPGQSPKLLIYWASTRESGVPDRFTGSGSGTDFTLTISSVKAEDLAVYYCHQYYRYPLTFGAGTKLELK
B6: SC34.89 (antibody, mouse IgG1, V domains shown)
VH: QVQLQQSGAELARPGASVKLSCKASGYTFTSYAISWVKQRTRQGLEWIGEIYPGSGDIHYSGKFKGKASLTTDKSSSTAYMQLSSLTSEDSAVYFCARVHDYGSWFPYWGQGTLVTVSA
VL: DIVMSQSPSSLGVSVGEKVTLSCKSSQSLFNKRDQKNYLAWYQQKPGQSPKLLIYWASTRESGVPDRFTGSGSGTDFILTIRSVKAEDLAVYYCHQSYRYPLTFGAGTKLELK
B7: SC34.91 (antibody, mouse IgG1, V domains shown)
VH: QVQLQQSGAELARPGASVKLSCKASGYTFRSYAISWVKQRTGQGLEWIGEIYPGSGDTYYNENFKGKATLTTDKSSSTAYMQLSSLTSEDSAVYFCARVHDNGSWFPYWGQGTLVTVSA
VL: DIVMSQSPSSLAVSVGEKVTMSCKSSQSLLYSTYQKNYLAWFQQKPGQSPKLLIYWASTRESGVPDRFTGSGSGTDFTLTISSVKAEDLAVYYCQQYYRYPLTFGAGTKLELK
B8: SC34.16 (antibody, mouse IgG1, V domains shown)
VH: QVQLQQSGTELARPGASVKLSCKASEYTFTSYAITWVRQRTGQGLEWIGEIYPGSGNTYYNETFKGKATLTSDKSSSTASMQLSSLTSEDSAVYFCARVHDYGSWFPYWGQGTLVTVSA
VL: DIVMSQSPSSLAVSVGEKVTMSCKSSQSLLYSRYQKNYLAWYQQKPGQSPKLLIYWSSTRESGVPDRFTGSGSGTDFTLTISSVKAEDLADYYCQQYYRYPLTFGAGTKLELK
B9: SC34.19 (antibody, mouse IgG1, V domains shown)
VH: QVQLQQSGAELARPGASVKLSCKASGYTFTSYAITWVKQRTGQGLEWIGEIYPGSGNTFFNEKFKGRATLTTDKSSSTAYMQLSSLTSEDSAVYFCARVHDYGSWFPYWGQGTLVTVSA
VL: DIVMSQSPSALAVSVGEKITMSCKCSQSLLHSRDQKNYLAWYQQKPGQSPKLLIYWASTRESGVPDRFTGSGSGTDFTLTINTVKAEDLAVYYCQQHYRYPLTFGAGTKLELK
B10: SC34.13 (antibody, mouse IgG2a, V domains shown)
VH: QVQVQQSGAELARPGASVKLSCKASGYTFTSYAISWVKQRTGQGLEWIGEIYPGSGNTYYNGKFKGKATLTTDKSSSTAYMQLSSLTSEDSAVYFCARVDDYGSWFPYWGQGTLVTVSA
VL: DIVMSQSPSSLAVSVGEKVTLSCKSSQSLLYSRYQKNYLAWYQQKPGQSPRLVIYWASTRESGVPDRFTGSGSGTDFTLTISSVKAEDLVVYYCQQYYRYPLTFGSGTKLELK
B11: SC34.20 (antibody, mouse IgG1, V domains shown)
VH: QVQLQQSGSELARPGASVKLSCKASGYTFRSYAISWVRQRTGQGLEWIGEIYPESGNTDYNAQFKGKATLTTDKSSSTAYMQLSSLTSEASAVYFCARVHDYGSWFPYWGQGTLVTVSA
VL: DIVMSQSPSSLTVSVGEKVTMSCKSSQSLLYSTYQKNYLAWFQQKPGQSPKLLIYWASTRESGVPDRFTGSGSGTDFTLTISSVKAEDLAVYYCQQYYRYPLTFGAGTKLELK
B12: SC34.24 (antibody, mouse IgG1, V domains shown)
VH: QVQLQQSGPELARPGASVKLSCKASEYTFTSYAITWVKQRAGQGLEWIGEIYPGSGDTYYNEKFKGKATLTTDKSSSTAYMQLSSLTSEDSAVYFCARVHDYGSWFPYWGQGTLVTVSA
VL: DIVMSQSPSSLAVSVGEKVTMNCKSSQSLLYSRYQKNYLAWYQQKPGQSPKLLIYWASTRESGVPDRFTGSGSGTDFTLTISSVKAEDLAVYYCQQYYRYPLTFGAGTKLELK
B13: SC34.25 (antibody, mouse IgG1, V domains shown)
VH: QVQLQQSGVELARPGASVKVSCKASGYTFTSYAISWVKQRTGQGLEWIGEIYPGSGETYYNEKFKGKATLTTDKSSSTAYMHLSSLTSEDSAVYLCGRVNDYGSWFPYWGQGTLVTVSA
VL: DIVMSQSPSSLAVSGGEKVTMSCKSSQSLLYSRYQKNYVAWYQQKPGQSPKLLIYWASTRESGVPDRFTGSGSGTDFTLTISSVKAEDLAVYYCQQYYRYPLTFGAGTKLELK
B14: SC34.27 (antibody, mouse IgG1, V domains shown)
VH: QVQLQQSGAELARPGASVKLSCKASGYTFRSYGINWVKQRTGQGLEWIGEIYPGRGDVYYNENFKGKATLTTDKSSSTAYMQLSSLTSEDSAVYFCARVHDYGSWFPYWGQGTLVTVSA
VL: DIVMSQSPSSLAVSVGEKVTMSCKSSQSLLYSRNQKNYLAWYQQKPGQSPKLLIYWASTRESGVPDRFTGSGSGTDFTLTINSVKAEDLAVYYCHQYYRYPLTFGAGTKLELK
B15: SC34.36 (antibody, mouse IgG2a, V domains shown)
VH: QVQLQQPGSVLVRPGASVKLSCKASGYTFTSYWMHWVKQRPGQGLEWIGEISPTSGRPNYNAKFKGKATLTVDTSSSTAYVDLSSLTSEDSAVYYCAKGEGYYGKAFDYWGQGTTLTVSS
VL: DIQMTQTTSSLSASLGDRVTISCRASQDISNYLNWYQQKPDGTVKLLIYYTSRLHSGVPSRFSGSGSGTDYSLTISNLEQEDIATYFCQQGNTLPWTFGGGTKLEIK
B16: SC34.87 (antibody, mouse IgG2a, V domains shown)
VH: QVQLQQSGAELAKPGASVKMSCKASGYTFTSYWMLWVKQRPGQGLEWIGYIDPRNGYTEYNQKFKDKATLTADKSSSTAYMQLSSLTSEDSAVYYCTRGGNVAMDYWGQGTSVTVSS
VL: DIVMSQSPSSLAVSAGEKVTMSCKSSQSLLNSRTRKNYLAWYQQKPGQSPKLLIYWASTRESGVPGRFTGSGSGTDFTLTISSVQAEDLAVYYCKQSYNLWTFGGGTKLEIK
B17: SC34.33 (antibody, mouse IgG1, V domains shown)
VH: QVQLQQSGAELMKPGASVKISCKATGYTFSSYWIEWVKQRPGHGLEWIGEILPGSDKTYYNERFKDKATFTADTSSNTAYMQLSSLTSEDSAVYYCTRRAAAYYSNPEWFAYWGQGTLVTVSA
VL: QIVLTQSPAIMSASLGERVTMTCTASSSVNSFYLHWYQQKPGSSPKLWIHSTSNLASGVPGRFSGSGSGTSYSLTISSMEAEDAATYYCHQYHRSPYTFGGGTKLEIK
B18: SC34.49 (antibody, mouse IgG1, V domains shown)
VH: EVQLQQSGPELVKPGSSVKISCKASGYTFTDYHMNWVKQSHGKSLEWIGNINPYYGVSTYNQNLKGTATLTVDKSSSTAYMELRGLTSEDSAVYYCVRRAMDSPRFAYWGQGTLVTVSA
VL: DIQMTQSSSYLSVSLGGRVTITCKASEHINNWLAWYQQKPGNPPRLLISGATSLETGVPSRFSGSGSGKDYTLSITGLQTEDIATYFCQQYRSTPFTFGSGTKLEIK
B19: SC34.50 (antibody, mouse IgG2b, V domains shown)
VH: QVQLQQPGAELVRPGASVKLSCKASGYTFTSYWINWVKQRPGQGLEWIGNIFPSDSYTNYNQKFRDKATLTVDKSSSTAYMQLSSPTSEDSAVYYCTIRTYGNYFDYWGQGTTLTVSS
VL: DIQMTQSSSSFSVSLGDRVTITCKASEDIYNRLAWYQQKPGNAPRLLISGATSLETGVPSRFSGSGSGKDYTLSITSLQTEDVATYYCQQYWSTIFTFGSGTKLEIK

The binders below were run against cDPEP3 (Macaca fascicularis) (UniProt Q4R7M2) (assay: ELISA, coated antigen, antibody 1 ug/mL).
In the case of B1, the binding is reported as “binds”. B2 was tested, and the binding was “binds”. With B3 the binding was “binds”. With B4 the binding was “binds”. In the case of B5, the binding is reported as “binds”. In the case of B6, the binding is reported as “binds”. In the case of B7, the binding is reported as “binds”. B8 was tested, and the binding was “binds”. With B9 the binding was “binds”. In the case of B10, the binding is reported as “binds”. With B11 the binding was “binds”. For B12, the binding was “binds”. In the case of B13, the binding is reported as “binds”. With B14 the binding was “binds”. For B15, the binding was “binds”.

The binders below were run against rat DPEP3 ECD with histidine tag (rat) (UniProt Q5U2X4) (assay: ELISA, coated antigen, antibody 1 ug/mL).
B16 was tested, and the binding was “binds”.

These binders were tested against T1, human DPEP3 (hDPEP3) protein on the cell surface (human) (assay: flow cytometry, HEK-293T cells overexpressing hDPEP3).
For B8, the binding was “binds”. With B9 the binding was “binds”. For B17, the binding was “binds”. With B18 the binding was “binds”. In the case of B19, the binding is reported as “binds”.
